According to patent US20160046678A1 (ZYNGENIA, published 2016):
Results are given in words; binding and its absence hold for the method and conditions named. Some binding calls cover weakened binding; strength is not graded here.

Sequences of proteins named here, by UniProt entry; tags and fusion partners are left off. Residues count along the entry.
UniProt P05231, residues 30-212: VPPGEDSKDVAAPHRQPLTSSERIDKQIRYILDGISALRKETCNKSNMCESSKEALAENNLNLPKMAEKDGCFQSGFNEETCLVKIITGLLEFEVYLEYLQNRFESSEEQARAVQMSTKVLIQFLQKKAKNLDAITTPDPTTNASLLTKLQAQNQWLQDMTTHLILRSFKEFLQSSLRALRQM

B1: ILB625 (peptide)
peptide: MVYRWVMQADGQAGQGSATGGSGSTASSGSGSSFNEDCMWDPLLMDCAYSP
B2: ILB631 (peptide)
peptide: LQAWMWQVNQGQAGQGSATGGSSFNEDCMWDPLLMDCAYSPQGSATGGSSFNEDCMWDPLLMDCAYSP
B3: ILB645 (peptide)
peptide: QYQSRQTFQIGQAGQGSFNEDCMWDPLLMDCAYSPQGSFNEDCMWDPLLMDCAYSP

Target: IL6 (UniProt P05231)
Assay: MRD identification, Example 48

Row | Binder | binding
1 | HCKDMHWAIQFGQAGQGSFNEDCMWDPLLMDCAYSP [ILB621] | binds
2 | WLFVAEQSQYGQAGQGSATGGSSFNEDCMWDPLLMDCAYSP [ILB622] | binds
3 | ANSWCHTLYWDLMYCVWQE [ILB623] | binds
4 | DGSGFYPNKWFHGGQAGQGSATGGSSFNEDCMWDPLLMDCAYSP [ILB624] | binds
5 | B1 | binds
6 | HPMEIKTMMKGQAGQGSFNEDCMWDPLLMDCAYSP [ILB627] | binds
7 | LQAWMWQVNQGQAGQGSATGGSSFNEDCMWDPLLMDCAYSP [ILB629] | binds
8 | GCNYFPTQWECYGQAGQGSFNEDCMWDPLLMDCAYSP [ILB630] | binds
9 | B2 | binds
10 | QFPYESPPSIGQAGQGSFNEDCMWDPLLMDCAYSP [ILB632] | binds
11 | IYLSWDMPALGQAGQGSATGGSGSTASSFNEDCMWDPLLMDCAYSP [ILB633] | binds
12 | QYTEMVALVYGQAGQGSATGGSGSTASSFNEDCMWDPLLMDCAYSP [ILB634] | binds
13 | PDSWCHTLYWHLQHCLSQE [ILB635] | binds
14 | PAKDPFVMRHGQAGQGSATGGSSFNEDCMWDPLLMDCAYSP [ILB636] | binds
15 | WQVSSVQLPYGQAGQGSATGGSSFNEDCMWDPLLMDCAYSP [ILB637] | binds
16 | QQTQTYWGTWGQAGQGSFNEDCMWDPLLMDCAYSP [ILB638] | binds
17 | DQLWRQNWMQGQAGQGSFNEDCMWDPLLMDCAYSP [ILB639] | binds
18 | QYYNVYWQNQGQAGQGSATGGSSFNEDCMWDPLLMDCAYSP [ILB640] | binds
19 | QTYSNKPMGPQGSFNEDCMWDPLLMDCAYSP [ILB641] | binds
20 | EEEWSWYDRRGQAGQGSFNEDCMWDPLLMDCAYSP [ILB642] | binds
21 | AYYWKEWMKMGQAGQGSATGGSSFNEDCMWDPLLMDCAYSPG [ILB643] | binds
22 | AIAHLDVFPPQGSFNEDCMWDPLLMDCAYSP [ILB644] | binds
23 | B3 | binds
